# Data as given in PubChem BioAssay AID1224830 (NIAID, 2016)
# Aim: 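Genes whose knock-down alters the TNF-alpha reporter response to LPS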 (primary screen)
# System: human THP-1 monocytic leukaemia cells, TNF dual-luciferase reporter clone, PMA-differentiated to macrophage-like cells
# Knock-down reagent: siRNA pool against human genes, 50 nM
# Duration: LPS for 4 h, given about 3 days after siRNA transfection
# Treatment: bacterial LPS (TLR4 ligand), 10 ng/ml
# Detection: 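Ratio of firefly to renilla light, scaled to the plate median and expressed as a robust z-score per replicate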
# Reading the numbers: TNF reporter robust z-score: higher = stronger TNF reporter response to LPS
# Active means: 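Each well counts as active if its z-score is over 2.8 or under -1.5; controls are left without a call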
# In all, the deposit lists about 18,000 reagents; below is a part drawn at random. About 2,900 of all reagents (16%) count as active. 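Calls are made per well; low scores hint the gene aids the LPS response, high scores that it dampens it.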 Unmarked entries are inactive. Repeated entries: four replicate wells of each siRNA pool.
target gene,PubChem SID,TNF reporter robust z-score
BIRC5,SID315447348,-1.23
BIRC5,SID315447348,-1.05
BIRC5,SID315447348,-1.84 (active)
BIRC5,SID315447348,-0.77
CACNA1E,SID315447657,-0.04
CACNA1E,SID315447657,0.83
CACNA1E,SID315447657,1.01
CACNA1E,SID315447657,2.05
CUL4B,SID315452569,-0.3
CUL4B,SID315452569,-0.41
CUL4B,SID315452569,-0.36
CUL4B,SID315452569,0.24
PIGC,SID315450580,1.72
PIGC,SID315450580,1.09
PIGC,SID315450580,1.32
PIGC,SID315450580,1.77
SPINT2,SID315454270,0.31
SPINT2,SID315454270,0.36
SPINT2,SID315454270,0.56
SPINT2,SID315454270,0.79
ABCG8,SID315458881,0.16
ABCG8,SID315458881,0.23
ABCG8,SID315458881,0.01
ABCG8,SID315458881,-0.36
OPN1LW,SID315451085,0.96
OPN1LW,SID315451085,1.33
OPN1LW,SID315451085,0.8
OPN1LW,SID315451085,0.77
THSD4,SID315459531,-0.42
THSD4,SID315459531,-0.35
THSD4,SID315459531,0.13
THSD4,SID315459531,1
MRS2,SID315458362,0.76
MRS2,SID315458362,0
MRS2,SID315458362,1.89
MRS2,SID315458362,0.2
TMEM220,SID315464477,-0.36
TMEM220,SID315464477,-0.93
TMEM220,SID315464477,-1.75 (active)
TMEM220,SID315464477,-1.49
SNF8,SID315454729,0.06
SNF8,SID315454729,0.29
SNF8,SID315454729,-0.3
SNF8,SID315454729,1.35
GHRH,SID315448892,-2.04 (active)
GHRH,SID315448892,-1.67 (active)
GHRH,SID315448892,-1.82 (active)
GHRH,SID315448892,-1.88 (active)
PPP2R2A,SID315450753,1.25
PPP2R2A,SID315450753,0.81
PPP2R2A,SID315450753,0.48
PPP2R2A,SID315450753,1.08
LOC400576 (retired record),SID315464746,-0.21
LOC400576 (retired record),SID315464746,-0.13
LOC400576 (retired record),SID315464746,-0.04
LOC400576 (retired record),SID315464746,0.54
PATE2,SID315464730,4.5 (active)
PATE2,SID315464730,1.03
PATE2,SID315464730,-0.43
PATE2,SID315464730,1.67
BLOC1S5,SID315458765,-0.72
BLOC1S5,SID315458765,0.01
BLOC1S5,SID315458765,0
BLOC1S5,SID315458765,0.32
CHSY3,SID315463952,-0.46
CHSY3,SID315463952,-0.28
CHSY3,SID315463952,-1.8 (active)
CHSY3,SID315463952,0.68
OR51I2,SID315464599,0.14
OR51I2,SID315464599,-0.2
OR51I2,SID315464599,-0.22
OR51I2,SID315464599,0.32
KRT39,SID315464661,-0.25
KRT39,SID315464661,-0.79
KRT39,SID315464661,0.42
KRT39,SID315464661,-0.2

Entries listed so far marked active (8):
target gene,PubChem SID,TNF reporter robust z-score
BIRC5,SID315447348,-1.84 (active)
TMEM220,SID315464477,-1.75 (active)
GHRH,SID315448892,-2.04 (active)
GHRH,SID315448892,-1.67 (active)
GHRH,SID315448892,-1.82 (active)
GHRH,SID315448892,-1.88 (active)
PATE2,SID315464730,4.5 (active)
CHSY3,SID315463952,-1.8 (active)
